# In the supplement of paper PMC8728848:
# Some of the results follow.
# B1: Erv46-EDTA (Saccharomyces cerevisiae), P39727 (protein)
# chain: MKFLVNVALVFMVVYISYIYAAAPEHHHHHHDYDIPTTENLYFQGAMDSVVTRPQLVVDRDRHAKLELNMDVTFPSMPCDLVNLDIMDDSGEMQLDILDAGFTMSRLNSEGRPVGDATELHVGGNGDGTAPVNNDPNYCGPCYGAKDQSQNENLAQEEKVCCQDCDAVRSAYLEAGWAFFDGKNIEQCEREGYVSKINEHLNEGCRIKGSAQINRIQGNLHFAPGKPYQNAYGHFHDTSLYDKTSNLNFNHIINHLSFGKPIQSHSKLLGNDKRHGGAVVATSPLDGRQVFPDRNTHFHQFSYFAKIVPTRYEYLDNVVIETAQFSATFHSRPLAGGRDKDHPNTLHVRGGIPGMFVFFEMSPLKVINKEQ
# Legend:
# Test in all cases: glycan array binding signal (z-score within array); higher = stronger binding
# Details in all cases: glycan notation: IUPAC condensed, linker removed
# [1] = target: Fuc(a1-2)[GalNAc(b1-3)]Gal
# Method in brief: (§1)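 Glycan array binding is given as a within-array Z-score, which can be read as non-binding when negative. The arrays, 3228 of them, came from the Consortium for Functional Glycomics database and were retained only where the protein sequence was available. Z-scores were averaged across arrays of the same protein sequence at different concentrations or buffers and across linkers.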
# [2] = target: Fuc(a1-3)GlcNAc
# Method in brief: as §1
# [3] = target: Fuc(a1-3)[Gal(b1-4)]Glc6S
# Method in brief: as §1
# [4] = target: Fuc(a1-3)[Gal(b1-4)]GlcNAc
# Method in brief: as §1
# [5] = target: Fuc(a1-3)[Gal(b1-4)]GlcNAc(b1-2)Man
# Method in brief: as §1
# [6] = target: Fuc(a1-3)[Gal(b1-4)]GlcNAc(b1-2)Man(a1-3)[Fuc(a1-3)[Gal(b1-4)]GlcNAc(b1-2)Man(a1-6)]Man(b1-4)GlcNAc(b1-4)GlcNAc
# Method in brief: as §1
# [7] = target: Fuc(a1-3)[Gal(b1-4)]GlcNAc(b1-2)Man(a1-3)[Fuc(a1-3)[Gal(b1-4)]GlcNAc(b1-2)Man(a1-6)]Man(b1-4)GlcNAc(b1-4)[Fuc(a1-6)]GlcNAc
# Method in brief: as §1
# [8] = target: Fuc(a1-3)[Gal(b1-4)]GlcNAc(b1-3)Gal(b1-3)[Fuc(a1-4)]GlcNAc
# Method in brief: as §1
# [9] = target: Fuc(a1-3)[Gal(b1-4)]GlcNAc(b1-3)Gal(b1-4)[Fuc(a1-3)]GlcNAc
# Method in brief: as §1
# [10] = target: Fuc(a1-3)[Gal(b1-4)]GlcNAc(b1-3)Gal(b1-4)[Fuc(a1-3)]GlcNAc(b1-3)Gal(b1-4)[Fuc(a1-3)]GlcNAc
# Method in brief: as §1
# [11] = target: Fuc(a1-3)[Gal(b1-4)]GlcNAc(b1-3)GalNAc
# Method in brief: as §1
# [12] = target: Fuc(a1-3)[Gal(b1-4)]GlcNAc(b1-6)GalNAc
# Method in brief: as §1
# [13] = target: Fuc(a1-3)[Gal(b1-4)]GlcNAc(b1-6)[Gal(b1-3)GlcNAc(b1-3)]Gal(b1-4)Glc
# Method in brief: as §1
# [14] = target: Fuc(a1-3)[Gal(b1-4)]GlcNAc6S
# Method in brief: as §1
# [15] = target: Fuc(a1-3)[Gal3S(b1-4)]Glc
# Method in brief: as §1
# [16] = target: Fuc(a1-3)[Gal3S(b1-4)]GlcNAc
# Method in brief: as §1
# [17] = target: Fuc(a1-3)[Gal3S(b1-4)]GlcNAc6S
# Method in brief: as §1
# [18] = target: Fuc(a1-3)[GalNAc(b1-4)]GlcNAc
# Method in brief: as §1
# [19] = target: Fuc(a1-3)[GalNAc(b1-4)]GlcNAc6S
# Method in brief: as §1
# [20] = target: Fuc(a1-4)GlcNAc
# Method in brief: as §1
# [21] = target: Fuc(b1-3)GlcNAc
# Method in brief: as §1
# [22] = target: Gal(a1-2)Gal
# Method in brief: as §1
# [23] = target: Gal(a1-3)Gal
# Method in brief: as §1
# [24] = target: Gal(a1-3)Gal(b1-3)GlcNAc
# Method in brief: as §1
# [25] = target: Gal(a1-3)Gal(b1-3)GlcNAc(b1-2)Man
# Method in brief: as §1
# [26] = target: Gal(a1-3)Gal(b1-3)GlcNAc(b1-2)Man(a1-3)[Gal(a1-3)Gal(b1-3)GlcNAc(b1-2)Man(a1-6)]Man(b1-4)GlcNAc(b1-4)GlcNAc
# Method in brief: as §1
# [27] = target: Gal(a1-3)Gal(b1-3)GlcNAc(b1-3)GalNAc
# Method in brief: as §1
# [28] = target: Gal(a1-3)Gal(b1-3)GlcNAc(b1-6)GalNAc
# Method in brief: as §1
# [29] = target: Gal(a1-3)Gal(b1-3)[Fuc(a1-4)]GlcNAc(b1-2)Man(a1-3)[Gal(a1-3)Gal(b1-3)[Fuc(a1-4)]GlcNAc(b1-2)Man(a1-6)]Man(b1-4)GlcNAc(b1-4)GlcNAc
# Method in brief: as §1
# [30] = target: Gal(a1-3)Gal(b1-4)Glc
# Method in brief: as §1
# [31] = target: Gal(a1-3)Gal(b1-4)GlcNAc
# Method in brief: as §1
# [32] = target: Gal(a1-3)Gal(b1-4)GlcNAc(b1-2)Man
# Method in brief: as §1
# [33] = target: Gal(a1-3)Gal(b1-4)GlcNAc(b1-2)Man(a1-3)[Gal(a1-3)Gal(b1-4)GlcNAc(b1-2)Man(a1-6)]Man(b1-4)GlcNAc(b1-4)GlcNAc
# Method in brief: as §1
# [34] = target: Gal(a1-3)Gal(b1-4)GlcNAc(b1-3)GalNAc
# Method in brief: as §1
# [35] = target: Gal(a1-3)Gal(b1-4)GlcNAc(b1-6)GalNAc
# Method in brief: as §1
# [36] = target: Gal(a1-3)Gal(b1-4)[Fuc(a1-3)]GlcNAc
# Method in brief: as §1
# [37] = target: Gal(a1-3)Gal(b1-4)[Fuc(a1-3)]GlcNAc(b1-2)Man(a1-3)[Gal(a1-3)Gal(b1-4)[Fuc(a1-3)]GlcNAc(b1-2)Man(a1-6)]Man(b1-4)GlcNAc(b1-4)GlcNAc
# Method in brief: as §1
binder,measurement,setting,value
B1,glycan array binding signal (z-score),[1],0.043
same,glycan array binding signal (z-score),[2],0.257
same,glycan array binding signal (z-score),[3],0.276
same,glycan array binding signal (z-score),[4],0.177
same,glycan array binding signal (z-score),[5],-0.264
same,glycan array binding signal (z-score),[6],-0.518
same,glycan array binding signal (z-score),[7],0.26
same,glycan array binding signal (z-score),[8],-0.392
same,glycan array binding signal (z-score),[9],1.01
same,glycan array binding signal (z-score),[10],0.026
same,glycan array binding signal (z-score),[11],0.767
same,glycan array binding signal (z-score),[12],1.43
same,glycan array binding signal (z-score),[13],-0.635
same,glycan array binding signal (z-score),[14],-0.007
same,glycan array binding signal (z-score),[15],0.185
same,glycan array binding signal (z-score),[16],-0.897
same,glycan array binding signal (z-score),[17],0.691
same,glycan array binding signal (z-score),[18],-0.059
same,glycan array binding signal (z-score),[19],-0.982
same,glycan array binding signal (z-score),[20],-0.577
same,glycan array binding signal (z-score),[21],-0.253
same,glycan array binding signal (z-score),[22],0.198
same,glycan array binding signal (z-score),[23],-0.004
same,glycan array binding signal (z-score),[24],-0.986
same,glycan array binding signal (z-score),[25],-0.516
same,glycan array binding signal (z-score),[26],0.432
same,glycan array binding signal (z-score),[27],0.217
same,glycan array binding signal (z-score),[28],0.196
same,glycan array binding signal (z-score),[29],0.286
same,glycan array binding signal (z-score),[30],-0.076
same,glycan array binding signal (z-score),[31],0.068
same,glycan array binding signal (z-score),[32],0.805
same,glycan array binding signal (z-score),[33],0.337
same,glycan array binding signal (z-score),[34],-0.319
same,glycan array binding signal (z-score),[35],0.246
same,glycan array binding signal (z-score),[36],-0.327
same,glycan array binding signal (z-score),[37],2.74

# 2 records picked at random from the list so far:
binder,measurement,setting,value
B1,glycan array binding signal (z-score),[34],-0.319
same,glycan array binding signal (z-score),[13],-0.635
